This passage reports binding results from paper PMC9500045.

Protein sequences, listed by entry. Tags and fused reporters are not part of them.
UniProt Q14247: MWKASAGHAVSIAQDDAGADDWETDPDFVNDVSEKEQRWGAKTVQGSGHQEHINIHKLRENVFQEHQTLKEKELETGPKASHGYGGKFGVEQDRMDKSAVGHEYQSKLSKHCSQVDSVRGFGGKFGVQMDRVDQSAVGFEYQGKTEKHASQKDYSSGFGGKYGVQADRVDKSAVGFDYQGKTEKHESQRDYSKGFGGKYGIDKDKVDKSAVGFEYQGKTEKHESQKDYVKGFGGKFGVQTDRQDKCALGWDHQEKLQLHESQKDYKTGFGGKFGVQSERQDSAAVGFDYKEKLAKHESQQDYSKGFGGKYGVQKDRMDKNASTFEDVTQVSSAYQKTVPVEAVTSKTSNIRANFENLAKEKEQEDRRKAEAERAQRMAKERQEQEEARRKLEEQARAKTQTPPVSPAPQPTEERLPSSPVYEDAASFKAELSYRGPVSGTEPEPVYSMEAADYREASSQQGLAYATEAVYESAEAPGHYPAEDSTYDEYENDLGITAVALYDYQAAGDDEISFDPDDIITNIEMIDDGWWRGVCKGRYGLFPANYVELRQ

No constants are given. Whether binding was seen depends on the method and setting. Binding seen in cells or lysates may run through a third protein. Some binding calls cover weakened binding; strength is not graded here. Where a sequence is shown, tags or fusion partners need not be part of it.

This assay deals with T1, Flag-tagged USP43 (UniProt Q70EL4).
T1 sequence: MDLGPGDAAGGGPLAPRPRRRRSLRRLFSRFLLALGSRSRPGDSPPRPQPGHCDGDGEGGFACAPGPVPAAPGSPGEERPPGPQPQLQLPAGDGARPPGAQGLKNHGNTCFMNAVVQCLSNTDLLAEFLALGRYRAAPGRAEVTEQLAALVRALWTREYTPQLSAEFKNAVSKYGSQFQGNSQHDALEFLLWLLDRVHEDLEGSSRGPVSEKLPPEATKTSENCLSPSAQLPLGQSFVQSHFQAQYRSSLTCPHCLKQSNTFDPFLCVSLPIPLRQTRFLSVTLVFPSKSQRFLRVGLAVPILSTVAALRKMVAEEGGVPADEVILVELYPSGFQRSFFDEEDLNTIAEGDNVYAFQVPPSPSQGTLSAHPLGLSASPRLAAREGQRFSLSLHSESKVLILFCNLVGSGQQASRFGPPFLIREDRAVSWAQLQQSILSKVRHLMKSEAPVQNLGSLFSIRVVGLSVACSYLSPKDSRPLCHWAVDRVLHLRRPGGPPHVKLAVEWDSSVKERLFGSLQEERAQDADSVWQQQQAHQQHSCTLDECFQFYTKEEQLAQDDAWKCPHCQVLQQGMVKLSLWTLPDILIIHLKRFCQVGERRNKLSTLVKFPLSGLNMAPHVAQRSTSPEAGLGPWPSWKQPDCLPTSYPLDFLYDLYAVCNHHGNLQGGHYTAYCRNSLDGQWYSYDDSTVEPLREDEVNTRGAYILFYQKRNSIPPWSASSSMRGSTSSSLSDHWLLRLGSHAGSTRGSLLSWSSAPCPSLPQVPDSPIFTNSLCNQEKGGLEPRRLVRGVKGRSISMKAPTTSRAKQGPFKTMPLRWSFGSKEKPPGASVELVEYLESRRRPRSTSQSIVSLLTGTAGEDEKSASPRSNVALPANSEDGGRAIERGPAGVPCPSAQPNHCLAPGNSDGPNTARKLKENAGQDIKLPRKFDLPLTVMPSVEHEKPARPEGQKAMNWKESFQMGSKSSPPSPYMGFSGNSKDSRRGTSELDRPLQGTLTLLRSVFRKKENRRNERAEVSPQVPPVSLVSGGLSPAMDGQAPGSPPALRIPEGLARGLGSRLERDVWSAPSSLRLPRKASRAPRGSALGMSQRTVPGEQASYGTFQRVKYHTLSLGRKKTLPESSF
In words: co-IP; whole cell lysate of MDA-MB-231 cells expressing Flag-tagged USP43 or control vector, incubated with anti-Flag beads at 4 °C, washed three times with IP lysis buffer; immunoblot for cortactin. (In general: In western blotting, separated proteins are transferred to a membrane and probed.)

In the case of cortactin (from UniProt Q14247 1-550), the binding result is on record as “binds”.
